# Measured values published in PubChem BioAssay AID1347421 (Sanford-Burnham Center for Chemical Genomics, 2020).
# Chains of the proteins cited; added tags and fusions are not shown. Lines headed by an entry give the natural chain unless they say otherwise; changes in a name come on top.
# UniProt O00391: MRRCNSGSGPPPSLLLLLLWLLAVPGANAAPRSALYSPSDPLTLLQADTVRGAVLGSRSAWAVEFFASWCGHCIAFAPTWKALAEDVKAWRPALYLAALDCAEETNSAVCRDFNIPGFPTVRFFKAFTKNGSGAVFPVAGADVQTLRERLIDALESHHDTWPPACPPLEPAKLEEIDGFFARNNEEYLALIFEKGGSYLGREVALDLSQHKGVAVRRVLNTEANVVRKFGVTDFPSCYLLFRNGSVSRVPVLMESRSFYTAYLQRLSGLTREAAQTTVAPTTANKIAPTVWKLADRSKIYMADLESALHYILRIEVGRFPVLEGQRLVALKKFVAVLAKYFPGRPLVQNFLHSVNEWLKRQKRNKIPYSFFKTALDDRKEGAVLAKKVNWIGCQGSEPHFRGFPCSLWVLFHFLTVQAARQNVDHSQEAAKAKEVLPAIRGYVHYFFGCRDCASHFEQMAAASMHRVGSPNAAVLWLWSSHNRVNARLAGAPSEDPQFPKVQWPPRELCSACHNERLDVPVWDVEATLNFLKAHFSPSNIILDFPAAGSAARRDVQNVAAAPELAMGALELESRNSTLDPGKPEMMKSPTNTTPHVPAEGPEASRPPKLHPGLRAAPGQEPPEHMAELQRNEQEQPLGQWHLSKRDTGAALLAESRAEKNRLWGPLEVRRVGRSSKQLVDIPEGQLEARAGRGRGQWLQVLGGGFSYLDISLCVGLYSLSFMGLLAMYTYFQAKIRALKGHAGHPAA
# Over roughly 1,500 compounds, “activity” has its median near 2; the lowest 2% begin near -18. Some of the results follow. Active and inactive are the calls of the source.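 The calls were made as follows: active = inhibition of at least 40% at 10 µM; inconclusive = no clear call, values can overlap the other calls; inactive = the rest.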
# Target: Sulfhydryl oxidase 1 (Homo sapiens) (UniProt O00391)
# Assay: human QSOX1 sulfhydryl oxidase inhibition – biochemical, ROS-Glo luminescence, single concentration, confirmation (AID 1347421);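 also: 0% = DMSO wells with enzyme and 100% = wells lacking QSOX1 enzyme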
# Details: recombinant hQSOX1, RNase A substrate, ROS-Glo H2O2 luminescence; at 10 µM
row,SMILES,activity
1,COc1cc(CNCCc2ccncc2)ccc1OCC(O)CN(C)C(C)C (centres undefined),6.3%
2,COc1cc(CNCc2cccc(C)c2)ccc1OCC(O)CN1CCC(O)CC1 (centres undefined),1.6%
3,O=C(CC1C(=O)NCCN1Cc1ccccc1)NCCCn1cccn1 (centres undefined),inactive: -5.4%
4,Cc1ccsc1CNc1ccc(Cl)c(C(=O)O)c1,inactive: -10.6%
5,Cc1cccc(CN(C)C(=O)c2cc(-c3cn[nH]c3)nc3ccc(F)cc23)n1,inactive: -0.8%
6,CC(=O)c1cccc(CN2CCc3[nH]nc(-c4cccc(F)c4)c3C2)c1,0.5%
7,Cn1nccc1C(=O)Nc1cccc(F)c1,inactive: -13.4%
8,O=C(C1CCCO1)N1CCc2[nH]nc(-c3ccc(C(F)(F)F)cc3)c2C1 (centres undefined),inactive: -2.9%
9,COc1ccc(CCN(C)C2CCCN(C(=O)c3cc[n+]([O-])cc3)C2)cc1OC (centres undefined),inactive: -5%
10,O=C(Nc1ccccc1C(=O)N1CCCC1)C1CCCCC1,inactive: -3.9%
11,O=C(c1cc(S(=O)(=O)N2CCOCC2)c(Cl)cc1Cl)N1CCSCC1,inactive: -18.4%
12,COCc1ccc(C(=O)N2CCC(CCC(=O)NCc3cccnc3)CC2)o1,4.1%
13,CN(C(=O)CCN1CCCCC1=O)C1CCCN(CCCc2ccccc2)C1 (centres undefined),1%
14,Cc1ccc(-c2n[nH]c3c2CN(C(=O)Cc2ccc4c(c2)NC(=O)CO4)CC3)cc1,inactive: -5.4%
15,Cc1[nH]n2c(=O)c3c(nc2c1-c1ccc(F)cc1)CCC3,inactive: -16.9%
16,CN(Cc1ccc2nsnc2c1)C(=O)c1cn(Cc2ccc(F)cc2Cl)nn1,2%
17,Fc1ccccc1-c1noc2c1CN(Cc1ccc3c(c1)OCCO3)CC2,inactive: -4.5%
18,COc1cc(OC)c(CN2CCN(C3CCCCC3)C(CCO)C2)c(OC)c1 (centres undefined),0.7%
19,OCCOc1ccc(CN2CCCC(N3CCc4ccccc4C3)C2)cc1 (centres undefined),2.6%
20,COCc1ccc(CN2CC[C@@H](N(C)CCc3ccccn3)[C@H](O)C2)o1,0.7%
21,CCC(=O)Oc1ccc(/C=C/c2ccc3ccccc3n2)cc1,active: 71.1%
22,Cc1ccoc1C(=O)N1CCCC(CCC(=O)N2CCN(c3ccccn3)CC2)C1 (centres undefined),3.7%
23,CCN(Cc1ccncc1)Cc1cc(OC)ccc1OCC(O)CN1CCC(O)CC1 (centres undefined),2.6%
24,COc1cc(CNCCN2CCNC2=O)ccc1OCC(O)CN1CCSCC1 (centres undefined),2.8%
25,CC(C)n1nccc1NC(=O)Cn1ccc(-c2ccccc2)n1,3.1%
26,COc1ccc(-c2nc(CN3CCCCC3c3nccs3)c(C)o2)c(OC)c1 (centres undefined),inactive: -0.4%
27,Cn1ncc(N2CCC(CNC(=O)NC3CCCC3)C2)cc1=O (centres undefined),inactive: -4.8%

row,SMILES,activity
1,O=C(c1ccc2c(c1)OCO2)C1CCCN(Cc2cccn2-c2ccccn2)C1 (centres undefined),7.3%
2,O=C(/C=C/c1cccnc1)N1CCCC(N2CCN(c3ccc(F)cc3)CC2)C1 (centres undefined),1%
3,Nc1nc(/C=C/c2ccccc2Cl)nc(-c2ccccc2O)n1,1.5%
4,Cc1ccc(S(=O)(=O)NC2CCCCC2)cc1C(N)=O,inactive: -20.3%
5,N#Cc1nccnc1N1CCN(CC2(c3ccc(F)cc3)CCOC2)CC1 (centres undefined),2.3%
6,CC1CCN(Cc2nnnn2CCCC(=O)NC(C)c2nccs2)CC1 (centres undefined),6%
7,O=C1CN(c2nc3nonc3nc2NC2CCCC2)CCN1C1CCCC1,inactive: -1.2%
8,Cc1ccc(CN2CCN(Cc3ccc(C)o3)CC2CCO)cc1 (centres undefined),inactive: -5%
9,OC1CCN([C@@H]2CCN(Cc3ccc(OCc4ccccc4)cc3)C[C@H]2O)CC1,inactive: -1%
10,COc1ccc(-c2noc(CN(Cc3c(C)nn(C)c3C)C(C)C)n2)c(OC)c1OC,3.3%
11,CC(C)CCCC1CN(C2CCN(Cc3ccccn3)CC2)CCO1 (centres undefined),5.9%
12,CCOC(=O)c1cnc(SCC(=O)N2CCCC2)nc1N,inactive: -16.3%
13,[C+](=CCNCC1CCCO1)c1ccccc1 (centres undefined),4.1%
14,C=CCNC(=O)CCc1ccc(S(=O)(=O)NC)cc1,inactive: -11.4%
15,OCCOc1cccc(CN2CCN(CCc3ccccc3)C(CCO)C2)c1 (centres undefined),3.4%
16,CCCc1nnc(SCC(=O)NC2CC3CCC2C3)o1 (centres undefined),inactive: -4.5%
17,CN(C)S(=O)(=O)c1cccc(S(C)(=O)=O)c1,8.2%
18,CCCN1CCC(CCC(=O)NC2CC2)CC1,14.1%
19,Cc1nc(-c2ccc(CN3CCC(CCn4cccn4)CC3)cc2)[nH]c(=O)c1F,7.1%
20,Cc1nc2sccn2c1C(=O)N1CCCC(N(C)Cc2ccccc2)C1 (centres undefined),inactive: -0.3%
21,CCOC(=O)CNC(=O)N1CCCC(N2CCN(c3ccccc3)CC2)C1 (centres undefined),1.6%
22,c1ccc(CCCC2CN(Cc3ccncc3)CCO2)cc1 (centres undefined),3.2%
23,CCC(C)c1n[nH]c2c1CN(C(=O)c1scc3c1OCCO3)CC2 (centres undefined),6.3%
24,CN1CCN(S(=O)(=O)c2ccc3c(c2)CC(=O)N3C)CC1,6.2%
25,O=C(NCCc1cccnc1)Nc1nnc(-c2ccc(F)cc2)s1,inactive: -5.8%
26,CC1=C(C(=O)NCc2cccnc2Oc2ccccc2C)OCCO1,inactive: -0.4%
27,O=c1c2ccccc2cnn1Cc1ccon1,2.9%
